Reference: PubChem BioAssay AID328 (DTP/NCI, 2004)
The list shows only some results of the screen, not a fair sample: it is rich in T/C values a quarter to a half above the control, in often repeated tests (any T/C) and in doses without a T/C. Further doses and runs are listed elsewhere. T/C is the treated group as % of the vehicle group. Some entries give survivors of the animals treated and no T/C: the source holds a T/C of zero for them, seemingly a mark for toxic or unscored doses. Some doses without a T/C left all or most animals alive at the check, yet need not have been tolerated: survival well below the control is almost never listed, so the zero probably covers shortened survival too. Counts of survivors are from the toxicity check (mostly the fifth day) where no day follows; animals may have died later. Schedules are NCI's codes, read here as Q, the interval in days (D) or hours (H), X, the number of doses. For survival time, this PubChem deposit counts one and a half times the control or more as active, and values a quarter to a half above the control carry no call in these data; other NCI protocols may use other cut-offs.

Tested on: BDF1 mice, P388 leukemia ip, median survival T/C
Assay: NCI In Vivo Anticancer Drug Screen. Data for tumor model P388 Leukemia (intraperitoneal) in B6D2F1 (BDF1) mice
Conditions: T/C endpoint: median survival time, higher T/C = longer survival
Outline: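 Antitumour effect was judged in vivo: survival in drug-treated mice, normalised to that of vehicle-dosed controls, gives the reported T/C.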

[1] = dose: 100.0 mg/kg/injection, schedule: Q04DX003 (ip), vehicle: saline with Tween-80
[2] = dose: 200.0 mg/kg/injection, schedule: Q01DX009 (ip), vehicle: saline with Tween-80
[3] = dose: 400.0 mg/kg/injection, schedule: Q04DX003 (ip), vehicle: saline with Tween-80
[4] = dose: 200.0 mg/kg/injection, schedule: Q01DX009 (ip), vehicle: other
[5] = dose: 400.0 mg/kg/injection, schedule: Q01DX009 (ip), vehicle: other
[6] = dose: 6.25 mg/kg/injection, schedule: Q01DX009 (ip), vehicle: saline with Tween-80

## CC1(C)N=C(N)N=C(N)N1c1ccc(OCCOc2ccc(S(=O)(=O)F)cc2)c(Cl)c1
dose: 33.0 mg/kg/injection, schedule: Q04DX003 (ip), vehicle: saline with Tween-80
  T/C: 137 % of control
[1]
  survivor count: 6 of 6
[2]
  survivor count: 3 of 6
[3]
  survivor count: 0 of 6

## NCCO/C=C/C(N)C(=O)O (stereo not given)
dose: 6.25 mg/kg/injection, schedule: Q01DX009 (ip), vehicle: saline
  T/C: 136 % of control

## CC1OC2CC(=O)OC2C2=C1C(=O)c1c(O)c3c(c(O)c1C2=O)C1CC(O)C3(O)C(C)O1 (stereo not given)
dose: 20.0 mg/kg/injection, schedule: Q01DX010 (ip), vehicle: saline
  survivor count: 1 of 6

## N#Cc1cn(C2OC(CO)C(O)C2O)c2ncnc(N)c12 (stereo not given)
dose: 0.75 mg/kg/injection, schedule: Q01DX009 (ip), vehicle: other
  survivor count: 6 of 6
dose: 1.5 mg/kg/injection, schedule: Q01DX009 (ip), vehicle: other
  survivor count: 6 of 6
dose: 3.0 mg/kg/injection, schedule: Q01DX009 (ip), vehicle: other
  survivor count: 4 of 6
[1]
  survivor count: 0 of 6
dose: 200.0 mg/kg/injection, schedule: Q04DX003 (ip), vehicle: saline with Tween-80
  survivor count: 0 of 6
[3]
  survivor count: 0 of 6

## CC(=O)C(C)=P(c1ccccc1)(c1ccccc1)c1ccccc1
dose: 100.0 mg/kg/injection, schedule: Q01DX009 (ip), vehicle: saline
  survivor count: 3 of 6

## CC(C)CC(B1OCCO1)(C1CCCCC1)C1CCCCC1
dose: 100.0 mg/kg/injection, schedule: Q01DX009 (ip), vehicle: other
  survivor count: 6 of 6
[4]
  survivor count: 6 of 6
[5]
  survivor count: 6 of 6

## C1CCN[N-]C1.C1CCN[N-]C1.[Cl][Pt+2]([Cl])([Cl])[Cl]
dose: 3.12 mg/kg/injection, schedule: Q01DX009 (ip), vehicle: water
  survivor count: 6 of 6
dose: 12.5 mg/kg/injection, schedule: Q01DX009 (ip), vehicle: water
  survivor count: 6 of 6
dose: 25.0 mg/kg/injection, schedule: Q01DX009 (ip), vehicle: water
  survivor count: 6 of 6
dose: 50.0 mg/kg/injection, schedule: Q01DX009 (ip), vehicle: water
  survivor count: 2 of 6
dose: 100.0 mg/kg/injection, schedule: Q01DX009 (ip), vehicle: water
  survivor count: 0 of 6
dose: 100.0 mg/kg/injection, schedule: Q04DX003 (ip), vehicle: water
  survivor count: 4 of 6
dose: 200.0 mg/kg/injection, schedule: Q04DX003 (ip), vehicle: water
  survivor count: 1 of 6

## O=C(O)CS(=O)(=O)c1ccccc1
dose: 25.0 mg/kg/injection, schedule: Q01DX001 (ip), vehicle: other
  survivor count: 6 of 6

## COC(=O)[C@]1(C)CCC[C@]2(C)[C@H]3CC4OO[C@@]3(CC[C@H]21)[C@H]1O[C@@]41C(C)C
[4]
  T/C: 140 % of control
dose: 300.0 mg/kg/injection, schedule: Q01DX009 (ip), vehicle: other
  survivor count: 3 of 6
[5]
  survivor count: 5 of 6

## CN(C)N=Nc1ccc(CCCC(=O)NN)cc1
dose: 3.0 mg/kg/injection, schedule: Q01DX009 (ip), vehicle: saline with Tween-80
  T/C: 125 % of control
dose: 3.13 mg/kg/injection, schedule: Q01DX009 (ip), vehicle: saline with Tween-80
  T/C: 136 % of control
dose: 4.5 mg/kg/injection, schedule: Q01DX009 (ip), vehicle: saline with Tween-80
  T/C: 140 % of control
[6]
  T/C: 136 % of control
  survivor count: 5 of 6
dose: 12.5 mg/kg/injection, schedule: Q01DX009 (ip), vehicle: saline with Tween-80
  survivor count: 6 of 6
dose: 50.0 mg/kg/injection, schedule: Q01DX009 (ip), vehicle: saline with Tween-80
  survivor count: 5 of 6
[2]
  survivor count: 6 of 6
